Test system: solid phase comprising 3C3 antibody
Test: Biotin interference in the non-specific binding of A4-7-AE conjugates, ADVIA Centaur assay on native serum
Design: species or system sheep
Conditions: for Biotin Interference: change between sample without biotin and with biotin 100 ng/mL; for Sample with Biotin, assay measured concentration of androstenedione / Sample Without Biotin, assay measured concentration of androstenedione: native serum approximately 2.2 ng/mL androstenedione; for Sample with Biotin, assay measured concentration of androstenedione: biotin 100 ng/mL; for Sample Without Biotin, assay measured concentration of androstenedione: no biotin

Structure (SMILES)	Biotin Interference	Sample with Biotin, assay measured concentration of androstenedione	Sample Without Biotin, assay measured concentration of androstenedione
Cc1cc(C(=O)NCCC[N+](C)(CCCNC(=O)CCSC2CC3=CC(=O)CCC3(C)C3CCC4(C)C(=O)CCC4C23)CCCS(=O)(=O)[O-])cc(C)c1OC(=O)c1c2ccccc2[n+](CCCS(=O)(=O)[O-])c2ccccc12 (stereo not drawn) [compound 6, A4(7α)-CETE-NH-Z-ZAE]	7.4%	2.33 ng/mL	2.17 ng/mL
Cc1cc(C(=O)NCCC[N+](C)(CCCNC(=O)CCC2CC3=CC(=O)CCC3(C)C3CCC4(C)C(=O)CCC4C23)CCCS(=O)(=O)[O-])cc(C)c1OC(=O)c1c2ccccc2[n+](CCCS(=O)(=O)[O-])c2ccccc12 (stereo not drawn) [A4-carbon-ZAE(β), A4(7β)-propionamide-Z-ZAE]	0.4%	2.23 ng/mL	2.22 ng/mL
Cc1cc(C(=O)NCCC[N+](C)(CCCNC(=O)CCC2CC3=CC(=O)CCC3(C)C3CCC4(C)C(=O)CCC4C23)CCCS(=O)(=O)[O-])cc(C)c1OC(=O)c1c2ccccc2[n+](CCCS(=O)(=O)[O-])c2ccccc12 (stereo not drawn) [A4-carbon-ZAE(α), A4(7α)-propionamide-Z-ZAE]	0.6%	2.25 ng/mL	2.23 ng/mL

— US20210003596A1, “CHEMILUMINESCENT ANDROSTENEDIONE CONJUGATES” (Siemens Healthcare Diagnostics Inc., priority 2017, published 2021)
